The record followed here is publication PMC9654362.

The experiment deals with 3xFlag-FTH1 (ferritin heavy chain, H Ferritin subunit) (human) (UniProt P02794). As to the kind of experiment: affinity purification with mass spectrometry; 3xFlag-FTH1 immunoprecipitated from HEK-293T lysate on anti-FLAG M2 magnetic beads after pre-clearing on Protein G Dynabeads; washes with 150 and 300 mM NaCl in lysis buffer; elution with 3xFLAG peptide; SDS-PAGE, in situ trypsin digestion, nanoLC-MS/MS; empty vector as control.

These are yes or no findings as the source states them, for the method shown. Binding seen in cells or lysates may run through a third protein. A yes stands for co-enrichment or nearness to the bait. Other partners may have been found.

Take “HSPB1 protein (from UniProt P04792 1-205)”: the binding entry was “binds”.
Then Vimentin (from UniProt P08670 1-466), with “binds”.
